# Results deposited as PubChem BioAssay AID504808 (Drosophila RNAi Screening Center, 2011)
# Aim: 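Genes whose loss lifts activity of an E2F-responsive reporter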 (primary screen)
# Cells: Drosophila S2 cells
# Reagent: long dsRNA against Drosophila genes
# Detection: 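Firefly luciferase driven by E2F sites, normalised to Renilla luciferase on the same minimal promoter, measured by plate reader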
# Direction: E2F firefly: higher = more E2F reporter activity; Renilla normaliser: higher = more normaliser reporter signal
# Rule for the call: 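Called active if the normalised E2F reporter went up by over 50%; the cutoff is arbitrary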
# The screen tested about 21,000 reagents; below is an unselected part of those that have a named target and a result. Of all reagents, 18 (0.084%) were called active. 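Raw counts without plate normalisation, one of two replicates; the ratio scores behind the calls were not deposited.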 A number with no mark means an inactive call. Not given: the amount of reagent, the time to read-out.
Gene,DRSC id,"E2F firefly, rep 1","Renilla normaliser, rep 1"
CG6791,DRSC16118,78513,3987
zen2 (zerknullt-related),DRSC12633,1.17e5,6954
Pgam5 (Phosphoglycerate mutase 5),DRSC18551,1756,988
PolG1 (DNA polymerase gamma subunit 1),DRSC03621,88839,3815
Strip (Striatin interacting protein),DRSC08194,83996,3398
RpL3 (Ribosomal protein L3),DRSC16834,78799,6646
CG32579,DRSC19872,1.60e5,6623
CG9330,DRSC11066,1.43e5,6553
Tbc1d22 (TBC1 domain family member 22),DRSC15867,59941,3306
Cdk7 (Cyclin-dependent kinase 7),DRSC18451,30219,3044
et (eye transformer),DRSC19582,1.39e5,6112
CG8292,DRSC03082,1.37e5,5672
CG9313,DRSC04540,98453,3829
CG13775,DRSC02279,1.68e5,5407
ari-2 (ariadne 2),DRSC04672,90109,4068
Eglp2 (Entomoglyceroporin 2),DRSC04294,84486,3444
tef (teflon),DRSC07301,75149,3992
Cdc2rk (Cdc2-related kinase),DRSC07590,1.42e5,5323
Plp (Pericentrin-like protein),DRSC10006,1.79e5,9402
Plp (Pericentrin-like protein),DRSC10333,1.58e5,7960
Plp (Pericentrin-like protein),DRSC10700,72672,3901
Cpn (Calphotin),DRSC16613,71174,3624
CG7506,DRSC10860,86227,3308
COX3 (retired record),DRSC21279,1.30e5,7265
CG7914,DRSC20068,1.37e5,4191
CG10973,DRSC09813,73192,3888
Jhbp12 (Juvenile hormone binding protein 12),DRSC14621,1.08e5,5629
CG8399,DRSC07163,68845,3019
Syn2 (Syntrophin-like 2),DRSC06902,1.52e5,5001
Tao,DRSC19573,1.76e5,6406
Tao,DRSC19574,1.25e5,6841
Mrp5 (Multidrug resistance protein 5),DRSC15597,1.53e5,8398
Mrp5 (Multidrug resistance protein 5),DRSC15598,1.51e5,8454
Dlip1 (Dorsal interacting protein 1),DRSC18460,69102,4939

3 entries from above, reformatted:
{"Gene":"CG9330","DRSC id":"DRSC11066","E2F firefly, rep 1":1.43e5,"Renilla normaliser, rep 1":6553}
{"Gene":"Tbc1d22 (TBC1 domain family member 22)","DRSC id":"DRSC15867","E2F firefly, rep 1":59941,"Renilla normaliser, rep 1":3306}
{"Gene":"Cdk7 (Cyclin-dependent kinase 7)","DRSC id":"DRSC18451","E2F firefly, rep 1":30219,"Renilla normaliser, rep 1":3044}
